Measurements as given in patent US20060160117A1.
No constants are given. Whether binding was seen depends on the method and setting. Some binding calls cover weakened binding; strength is not graded here.

Biological target: T1, MTase(R124) (UniProt P10484)
T1 sequence (looked up) 1: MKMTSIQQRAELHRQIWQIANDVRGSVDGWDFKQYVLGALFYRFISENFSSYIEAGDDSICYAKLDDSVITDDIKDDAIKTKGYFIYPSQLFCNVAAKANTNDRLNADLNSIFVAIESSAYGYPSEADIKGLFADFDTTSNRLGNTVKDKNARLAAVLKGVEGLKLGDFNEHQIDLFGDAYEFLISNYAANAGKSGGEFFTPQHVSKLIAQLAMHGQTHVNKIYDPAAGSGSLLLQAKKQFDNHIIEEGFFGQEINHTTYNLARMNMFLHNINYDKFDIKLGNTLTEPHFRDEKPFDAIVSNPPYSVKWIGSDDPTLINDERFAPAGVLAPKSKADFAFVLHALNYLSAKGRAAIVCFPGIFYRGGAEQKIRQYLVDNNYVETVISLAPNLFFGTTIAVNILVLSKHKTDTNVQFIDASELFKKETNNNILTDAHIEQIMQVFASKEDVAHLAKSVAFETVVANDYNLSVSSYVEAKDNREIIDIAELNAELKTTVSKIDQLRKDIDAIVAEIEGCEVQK
T1 sequence (looked up) 2: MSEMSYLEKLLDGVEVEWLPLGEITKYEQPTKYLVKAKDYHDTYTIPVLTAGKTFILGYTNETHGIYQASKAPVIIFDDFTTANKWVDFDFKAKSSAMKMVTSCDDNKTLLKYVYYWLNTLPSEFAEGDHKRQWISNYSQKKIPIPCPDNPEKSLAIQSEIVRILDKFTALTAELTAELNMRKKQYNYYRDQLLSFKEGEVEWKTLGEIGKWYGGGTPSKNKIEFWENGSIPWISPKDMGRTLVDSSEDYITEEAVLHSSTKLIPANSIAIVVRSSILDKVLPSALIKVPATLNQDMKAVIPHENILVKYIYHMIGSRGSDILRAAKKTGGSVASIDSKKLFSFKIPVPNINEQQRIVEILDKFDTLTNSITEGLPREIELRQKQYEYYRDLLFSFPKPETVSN
Test: assembly of 50 nM MTase(R124) and 40 nM HsdR(R124) on pCFD30 DNA, checked by a cleavage test on agarose gel

B1: HsdR(R124) (enzyme, UniProt P10486 1-1038, looked up)
chain: MTHQTHTIAESNNFIVLDKYIKAEPTGDSYQSESDLERELIQDLRNQGYEFISVKSQSAMLANVREQLQNLNGVVFNDSEWRRFTEQYLDNPSDGILDKTRKIHIDYICDFIFDDERLENIYLIDKKNLMRNKVQIIQQFEQAGSHANRYDVTILVNGLPLVQIELKKRGVAIREAFNQIHRYSKESFNSENSLFKYLQLFVISNGTDTRYFANTTKRDKNSFDFTMNWAKSDNTLIKDLKDFTATCFQKHTLLNVLVNYSVFDSSQTLLVMRPYQIAATERILWKIKSSFTAKNWSKPESGGYIWHTTGSGKTLTSFKAARLATELDFIDKVFFVVDRKDLDYQTMKEYQRFSPDSVNGSENTAGLKRNLDKDDNKIIVTTIQKLNNLMKAESDLPVYNQQVVFIFDECHRSQFGEAQKNLKKKFKRYYQFGFTGTPIFPENALGSETTASVFGRELHSYVITDAIRDEKVLKFKVDYNDVRPQFKSLETETDEKKLSAAENQQAFLHPMRIQEITQYILNNFRQKTHRTFPGSKGFNAMLAVSSVDAAKAYYATFKRLQEEAANKSATYKPLRIATIFSFAANEEQNAIGEISDETFDTSAMDSSAKEFLDAAIREYNSHFKTNFSTDSNGFQNYYRDLAQRVKNQDIDLLIVVGMFLTGFDAPTLNTLFVDKNLRYHGLMQAFSRTNRIYDATKTFGNIVTFRDLERSTIDAITLFGDKNTKNVVLEKSYTEYMEGFTDAATGEAKRGFMTVVSELEQRFPDPTSIESEKEKKDFVKLFGEYLRAENILQNYDEFATLKALQQIDLSDPVAVEKFKAEHYVDDEKFAELQTIRLPADRKIQDYRSAYNDIRDWQRREKEAEKKEKSTTDWDDVVFEVDLLKSQEINLDYILGLIFEHNRQNKGKGEMIEEVKRLIRSSLGNRAKEGLVVDFIQQTNLDDLPDKASIIDAFFTFAQREQQREAEALIKEENLNEDAAKRYIRTSLKREYATENGTELNETLPKLSPLNPQYKTKKQAVFQKIVSFIEKFKGVGGKI
In the case of B1, the binding is reported as “binds”.
